Data as given in patent US20090022757A1, “Method for treating photoreceptor cell degeneration” (priority 2007, published 2009).
At least one compound was matched to its structure with a doubt left.

Tests used:
[1] = tested on: MNU-induced retinal photoreceptor cell degeneration; assay: Electroretinogram of rats with MNU-induced retinal photoreceptor cell degeneration treated with GLS oil and/or DHA; format: in vivo, Sprague Dawley rats; conditions: MNU 40 mg/kg i.p.
Procedure: Animals and grouping: One hundred and five 50-day-old Sprague Dawley rats were used in the experiment. Twenty-five rats were selected randomly as the normal control (receiving an excipient via gastric gavage). Eighty rats were used for establishing the photoreceptor cell degeneration model and were treated by intraperitoneal injection with a single dose of MNU at 40 mg/kg. The MNU-injected rats were randomly divided into four experimental groups:
(1) GLS oil treatment group (receiving GSL oil and an excipient via gastric gavage);
(2) GLS oil+DHA treatment group (receiving GSL oil, DHA, and an excipient via gastric gavage);
(3) DHA control group (receiving DHA and an excipient via gastric gavage;
(4) Model control group (receiving an excipient via gastric gavage).
The excipient used in this experiment is hydroxypropyl methyl cellulose. The treatment started three days before the administration of MNU (day-3). Each animal in Groups 1-3 received a daily gastric feeding of GSL oil only, GSL oil and DHA (2 mg/kg), or DHA (2 mg/kg) only, in 1 ml 0.5% hydroxypropyl methyl cellulose. Animals in Group 4 received 1 ml 0.5% hydroxypropyl methyl cellulose.
Electroretinogram examination: The pupils of rats were dilated as described in Example 1. The electroretinogram examinations were conducted under the following conditions: […]

[2] = tested on: MNU-induced retinal photoreceptor cell degeneration; assay: Pathological examination of MNU-induced retinal photoreceptor cell damage in rats treated with GLS oil and/or DHA; conditions: MNU 40 mg/kg i.p., P<0.05

For `CC/C=C\C/C=C\C/C=C\C/C=C\C/C=C\C/C=C\CCC(=O)O` [DHA, Docosahexaenoic acid], the “effect on MNU-induced reduction of a-wave and b-wave amplitudes of electroretinogram” value [1] was “suppressed” and the “MNU-induced pathologic damage of rat retinal outer nuclear layer photoreceptors compared with model control group” value [2] was “could suppress”.
